Measured values reported in article PMC7456882.
No constants are given. Whether binding was seen depends on the method and setting. Binding seen in cells or lysates may run through a third protein. Some entries that bind do so weakly or less than the wild type.

Sequences of proteins named here, by UniProt entry; tags and fusion partners are left off.
UniProt B8XX90: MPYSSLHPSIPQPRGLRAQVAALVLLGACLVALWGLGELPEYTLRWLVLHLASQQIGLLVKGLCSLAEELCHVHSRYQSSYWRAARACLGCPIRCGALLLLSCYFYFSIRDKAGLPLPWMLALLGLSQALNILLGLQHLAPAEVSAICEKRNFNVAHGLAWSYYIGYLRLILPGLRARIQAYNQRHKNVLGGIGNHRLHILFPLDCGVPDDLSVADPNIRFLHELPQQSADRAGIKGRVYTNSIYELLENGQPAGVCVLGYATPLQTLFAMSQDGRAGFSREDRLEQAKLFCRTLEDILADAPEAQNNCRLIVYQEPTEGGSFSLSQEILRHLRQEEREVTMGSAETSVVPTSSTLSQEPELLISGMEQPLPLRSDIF

T1: porcine cGAS (porcine) (UniProt I3LM39)
T1 sequence: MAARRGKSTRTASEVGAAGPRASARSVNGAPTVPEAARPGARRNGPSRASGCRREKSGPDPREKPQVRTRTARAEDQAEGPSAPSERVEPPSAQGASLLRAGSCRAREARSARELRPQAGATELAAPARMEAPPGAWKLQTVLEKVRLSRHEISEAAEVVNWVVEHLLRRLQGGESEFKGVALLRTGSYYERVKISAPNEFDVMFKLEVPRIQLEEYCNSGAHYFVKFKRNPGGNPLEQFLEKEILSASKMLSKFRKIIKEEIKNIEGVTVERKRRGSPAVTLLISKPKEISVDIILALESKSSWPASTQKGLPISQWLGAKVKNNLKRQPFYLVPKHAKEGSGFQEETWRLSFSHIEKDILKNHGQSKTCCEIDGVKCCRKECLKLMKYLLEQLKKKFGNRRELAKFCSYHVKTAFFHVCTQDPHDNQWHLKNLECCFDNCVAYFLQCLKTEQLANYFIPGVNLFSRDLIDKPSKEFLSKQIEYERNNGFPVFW

B1: porcine cGAS (protein, UniProt I3LM39 1-495)
chain: T1 sequence

Legend:
[1] = biological target: T1, porcine cGAS (porcine); assay: co-IP; 293T cells co-transfected with pcGAS and pSTING without or with 0.5 or 1.0 ug porcine IFI16; RIPA lysate; IP with anti-FLAG antibody; Western blot
[2] = biological target: porcine STING (GFP-STING fusion protein) (porcine) (UniProt B8XX90); assay: co-IP; 293T cells co-transfected with pcGAS and pSTING (0.5 ug each) for 48 h; RIPA lysate; IP with anti-GFP antibody overnight at 4 C, Protein A/G agarose; Western blot
[3] = biological target: porcine STING (GFP-STING fusion protein) (porcine) (UniProt B8XX90); assay: co-IP; 293T cells co-transfected with pcGAS and pSTING without or with 0.5 or 1.0 ug porcine IFI16; RIPA lysate; IP with anti-GFP antibody; Western blot

Row | Molecule | binding [1] | binding [2] | binding [3]
1 | porcine STING (GFP-STING fusion protein) (from UniProt B8XX90 1-378) | binds |  | 
2 | B1 |  | binds | binds
